# Values joined by “and” are separate entries in the source; they are usually repeats but may differ in a detail not shown here. Equal entries are not always repeated. Inconclusive results, whose numbers are uncertain, are shown with a selection of clear calls. Potencies beside an inconclusive call are fits to weak or partial responses and may not hold up. Active and inactive are the calls of the source. Calls come from the whole dose curve; as a rule, active = well fitted activation curve with a large enough effect; inconclusive = small, poorly fitted or top-dose-only effect, or effect the other way; inactive = flat fitted curve, though single readings scatter.
# Assay: Confirmation Concentration-Response Assay for Cell signaling CRE-BLA (Fsk stim) - HEK293 CREB Luciferase
# Conditions: HEK293 CRE-luc2P, NKH477 EC10 potentiation, luminescence, 4 h; activity, positive = activation: at 38.3 µM (top of the series)
# Source text: NIH Molecular Libraries Screening Centers Network [MLSCN] NIH Chemical Genomics Center [NCGC] MLSCN Grant: 1X01MH079867-01 Assay Provider: Marshall W. Nirenberg, U.S. National Heart, Lung and Blood Institute CRE Luciferase Assay Overview Memories persist for different lengths of time, from seconds or minutes to a lifetime. There are two kinds of memory: short-term memory (STM) and long-term memory (LTM). STM lasts for minutes to hours, which maybe mediated by modifications of molecules involved in synaptic functions. LTM lasts for days or longer, and may be due to the formation of new synapses or restructuring of existing synapses. LTM, but not STM, requires gene transcription and synthesis of proteins. CREB (cyclic-AMP Responsive Element Binding Protein) is one of the candidates plays an important role for enhancement of some types of LTM. CREB, a family of transcription factors, regulates the transcription of genes containing cAMP Responsive Elements (CRE). CRE is a nucleotide sequence often found in the promoter regions of genes that are binding sites for CREB. Using a luciferase reporter-gene under control of cAMP responsive element, a cell-based assay [CRE-luc2P HEK293 developed by Promega] was used to measure forskolin-induced signaling. The selected compounds were measured for their ability to modulate positively the action of EC10 NKH 477, a water soluble forskolin, on reporter gene activity. Compounds were screened in a titration series in 1536-well format. Positive modulators were identified based on the AC50 values derived from the screening data.
# NCGC Assay Protocol Summary 2500 cells/5uL in DEME with 1% FBS was dispensed into 1536-well plates and cells were cultured at 37 degrees Celsius overnight. Next day 23 nL of compounds or DMSO were delivered to each well using a pin tool, and 1uL of EC10 level of NKH 477, or EC100 level of IBMX, a PDE inhibitor, in the present of NKH 477, or assay medium was added. And then the plates were incubated at 37 degrees Celsius for 4 hours. 6 uL of Bright-Glo luciferase (Promega, WI) was added to each well. After incubated at room temperature for 10min the plates were measured for luminescence intensity on a ViewLux (Perkin Elmer) detector. Keywords: NIH Roadmap, MLSCN, MLSMR, qHTS, NCGC, CRE, luciferase, reporter-gene assay.
SMILES,Potency,"activity, positive = activation"
Cn1nc(-c2ccc(N3CCOCC3)c(NS(=O)(=O)c3ccccc3)c2)c2ccccc2c1=O,"inconclusive: 0.316 µM [activator, partial curve, poor fit]",–
Cc1cc(Nc2ccc3ccccc3c2)n2ncnc2n1,–,inactive: -24.4%
Cc1nc(SCC(=O)N2CCCc3ccccc32)c2oc3ccccc3c2n1,active: 3.98 µM,–
C=CCn1c(SCC(=O)Nc2sccc2C(N)=O)nc2sc(C)c(C)c2c1=O,active: 3.98 µM,–
CN(C)c1nc(N(C)C)nc(N(C)C)n1,"inconclusive: 25.1 µM [activator, single point]",–
CC[C@]1(O)C[C@@H]2CN(CCc3c([nH]c4ccccc34)[C@](C(=O)OC)(c3cc4c(cc3OC)N(C=O)[C@H]3[C@@](O)(C(=O)OC)[C@H](C(=O)OC)[C@@]5(CC)C=CCN6CC[C@]43[C@H]65)C2)C1,–,inactive: 7.76%
O=C(Cc1ccccc1)Nc1nc2ccc(Cl)cc2c2nc(-c3ccco3)nn12,"inconclusive: 0.0089 µM [inhibitor, full curve]",–
CN1C(=O)NC(c2ccccc2)C2=C1CN(Cc1ccccc1)C2=O (stereo unspecified),–,inactive: 20.9%
C=CCN1C(=O)c2oc3ccccc3c(=O)c2C1c1ccc(O)c(OC)c1 (stereo unspecified),active: 12.6 µM,–
COC(=O)Nc1nc2ccc(C(=O)c3cccs3)cc2[nH]1,"inconclusive: 2 µM [activator, partial curve, poor fit]",–
O=C(c1cc(S(=O)(=O)N2CCOCC2)ccc1F)N1CCCc2ccccc21,–,inactive: 18%
O=S(=O)(c1ccc2c(c1)OCCO2)N1CCC(O)(c2ccc(Cl)cc2)CC1,"inconclusive: 4.47 µM [activator, full curve, poor fit]",–
CC(=O)N1CCN(c2ccc(Nc3nc(C)nc4c3oc3ccccc34)cc2)CC1,"inconclusive: 25.1 µM [activator, single point]",–
O=c1c(O)c(-c2ccc(O)c(O)c2)oc2cc(O)ccc12,"inconclusive: 10 µM [inhibitor, full curve] and inconclusive: 7.94 µM [inhibitor, full curve, poor fit]",–
Cc1nn(-c2ccccc2)c2sc(C(=O)N3CCCCC3)cc12,active: 10 µM,–
Cc1cc(C)n(-c2nc(Nc3ccccc3)nc(-n3nc(C)cc3C)n2)n1,"inconclusive: 0.0071 µM [inhibitor, full curve, poor fit]",–
CSc1nc2ccc(Nc3nc(N4CCOCC4)nc(N4CCOCC4)n3)cc2s1,active: 0.631 µM,–
CC[C@]1(O)C[C@@H]2CN(CCc3c([nH]c4ccccc34)[C@](C(=O)OC)(c3cc4c(cc3OC)N(C)[C@H]3[C@](O)(C(=O)OC)[C@@H](C(=O)OC)[C@@]5(CC)C=CCN6CC[C@@]43[C@@H]65)C2)C1,–,inactive: -1.08%
COc1nc(Nc2nc3ccccc3c(=O)[nH]2)nc2ccc(C)cc12,"inconclusive: 1.41 µM [inhibitor, full curve]",–
COc1cc(-c2nnc3sc(-c4ccccn4)nn23)cc(OC)c1OC,"inconclusive: 3.16 µM [activator, full curve]",–
Clc1ccc(C2=Nn3c(nnc3-c3n[nH]c4c3CCC4)SC2)cc1Cl,"inconclusive: 1 µM [activator, full curve, poor fit]",–
COCc1cc(=O)[nH]c(Nc2nc(C)c3ccc(C)cc3n2)n1,"inconclusive: 1.26 µM [inhibitor, partial curve]",–
Cc1ccc(-n2ncc3c(=O)[nH]c(SCC(=O)N4CCOCC4)nc32)cc1,–,inconclusive: 47.5% [activator]
CCn1c2ccccc2c2cc(Nc3cc(C)nc4ncnn34)ccc21,–,inactive: 8.72%
CCCCCOC(=O)c1[nH]c2c(c1C)C(=O)CC(c1ccco1)C2 (stereo unspecified),–,inactive: -16.5%
CC1CCc2c(sc3nc(C4CC4)nc(SCC(=O)NCc4ccco4)c23)C1 (stereo unspecified),–,inactive: 7.72%

# Part of the list above, with bars between the fields:
SMILES | Potency | activity, positive = activation
CC[C@]1(O)C[C@@H]2CN(CCc3c([nH]c4ccccc34)[C@](C(=O)OC)(c3cc4c(cc3OC)N(C)[C@H]3[C@](O)(C(=O)OC)[C@@H](C(=O)OC)[C@@]5(CC)C=CCN6CC[C@@]43[C@@H]65)C2)C1 | – | inactive: -1.08%
COc1nc(Nc2nc3ccccc3c(=O)[nH]2)nc2ccc(C)cc12 | inconclusive: 1.41 µM [inhibitor, full curve] | –
